Results are given in words; binding and its absence hold for the method and conditions named. In cells and extracts the contact can be indirect. These calls come from enrichment with a bait or labelling near it, and not all partners need be listed.

The chains behind the UniProt entries cited, without tags or fusion partners. Where a name states a change or a piece, a line headed by the entry shows the natural chain unless it says otherwise.
UniProt Q9GYM9: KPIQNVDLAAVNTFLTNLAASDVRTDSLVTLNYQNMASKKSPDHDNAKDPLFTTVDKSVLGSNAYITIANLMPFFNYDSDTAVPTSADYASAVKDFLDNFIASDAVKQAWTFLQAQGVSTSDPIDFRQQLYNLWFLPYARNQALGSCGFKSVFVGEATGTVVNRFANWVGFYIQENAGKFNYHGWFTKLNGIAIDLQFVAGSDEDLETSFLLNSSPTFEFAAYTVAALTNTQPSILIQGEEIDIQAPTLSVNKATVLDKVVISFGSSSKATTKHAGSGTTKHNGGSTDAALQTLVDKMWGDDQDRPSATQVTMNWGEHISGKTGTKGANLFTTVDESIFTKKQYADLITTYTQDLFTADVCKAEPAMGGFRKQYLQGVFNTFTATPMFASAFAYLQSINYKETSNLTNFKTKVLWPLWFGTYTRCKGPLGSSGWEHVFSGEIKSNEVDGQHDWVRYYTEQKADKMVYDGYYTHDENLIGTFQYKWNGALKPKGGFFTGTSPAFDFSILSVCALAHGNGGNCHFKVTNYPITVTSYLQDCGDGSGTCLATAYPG
UniProt Q9N3C9: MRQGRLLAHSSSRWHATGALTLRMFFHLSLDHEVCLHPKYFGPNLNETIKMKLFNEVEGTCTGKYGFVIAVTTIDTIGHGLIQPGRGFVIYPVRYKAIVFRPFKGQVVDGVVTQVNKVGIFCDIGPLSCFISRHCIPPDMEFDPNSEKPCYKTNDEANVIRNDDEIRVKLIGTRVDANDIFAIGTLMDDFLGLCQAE
UniProt G5EF87: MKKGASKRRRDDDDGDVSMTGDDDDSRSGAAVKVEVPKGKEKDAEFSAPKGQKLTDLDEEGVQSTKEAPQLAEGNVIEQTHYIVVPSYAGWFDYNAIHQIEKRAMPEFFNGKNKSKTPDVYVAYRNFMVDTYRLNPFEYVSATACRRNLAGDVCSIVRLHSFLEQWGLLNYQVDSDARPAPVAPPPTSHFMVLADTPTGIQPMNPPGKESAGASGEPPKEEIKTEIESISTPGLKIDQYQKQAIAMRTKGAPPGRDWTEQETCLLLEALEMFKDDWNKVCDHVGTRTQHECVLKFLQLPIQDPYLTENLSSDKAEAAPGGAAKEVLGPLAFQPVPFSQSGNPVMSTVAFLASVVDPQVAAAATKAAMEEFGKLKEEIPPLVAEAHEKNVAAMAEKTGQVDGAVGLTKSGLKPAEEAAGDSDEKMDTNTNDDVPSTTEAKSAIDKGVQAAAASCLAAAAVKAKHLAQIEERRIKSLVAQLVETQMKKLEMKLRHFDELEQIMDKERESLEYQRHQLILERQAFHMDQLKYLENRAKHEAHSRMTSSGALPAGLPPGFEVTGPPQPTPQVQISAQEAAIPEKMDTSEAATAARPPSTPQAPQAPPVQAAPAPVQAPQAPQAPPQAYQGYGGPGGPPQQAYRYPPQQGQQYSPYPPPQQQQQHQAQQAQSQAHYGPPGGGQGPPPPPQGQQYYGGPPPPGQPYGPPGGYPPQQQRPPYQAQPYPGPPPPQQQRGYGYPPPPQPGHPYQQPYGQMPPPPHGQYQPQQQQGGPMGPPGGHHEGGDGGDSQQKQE
UniProt G5EF53: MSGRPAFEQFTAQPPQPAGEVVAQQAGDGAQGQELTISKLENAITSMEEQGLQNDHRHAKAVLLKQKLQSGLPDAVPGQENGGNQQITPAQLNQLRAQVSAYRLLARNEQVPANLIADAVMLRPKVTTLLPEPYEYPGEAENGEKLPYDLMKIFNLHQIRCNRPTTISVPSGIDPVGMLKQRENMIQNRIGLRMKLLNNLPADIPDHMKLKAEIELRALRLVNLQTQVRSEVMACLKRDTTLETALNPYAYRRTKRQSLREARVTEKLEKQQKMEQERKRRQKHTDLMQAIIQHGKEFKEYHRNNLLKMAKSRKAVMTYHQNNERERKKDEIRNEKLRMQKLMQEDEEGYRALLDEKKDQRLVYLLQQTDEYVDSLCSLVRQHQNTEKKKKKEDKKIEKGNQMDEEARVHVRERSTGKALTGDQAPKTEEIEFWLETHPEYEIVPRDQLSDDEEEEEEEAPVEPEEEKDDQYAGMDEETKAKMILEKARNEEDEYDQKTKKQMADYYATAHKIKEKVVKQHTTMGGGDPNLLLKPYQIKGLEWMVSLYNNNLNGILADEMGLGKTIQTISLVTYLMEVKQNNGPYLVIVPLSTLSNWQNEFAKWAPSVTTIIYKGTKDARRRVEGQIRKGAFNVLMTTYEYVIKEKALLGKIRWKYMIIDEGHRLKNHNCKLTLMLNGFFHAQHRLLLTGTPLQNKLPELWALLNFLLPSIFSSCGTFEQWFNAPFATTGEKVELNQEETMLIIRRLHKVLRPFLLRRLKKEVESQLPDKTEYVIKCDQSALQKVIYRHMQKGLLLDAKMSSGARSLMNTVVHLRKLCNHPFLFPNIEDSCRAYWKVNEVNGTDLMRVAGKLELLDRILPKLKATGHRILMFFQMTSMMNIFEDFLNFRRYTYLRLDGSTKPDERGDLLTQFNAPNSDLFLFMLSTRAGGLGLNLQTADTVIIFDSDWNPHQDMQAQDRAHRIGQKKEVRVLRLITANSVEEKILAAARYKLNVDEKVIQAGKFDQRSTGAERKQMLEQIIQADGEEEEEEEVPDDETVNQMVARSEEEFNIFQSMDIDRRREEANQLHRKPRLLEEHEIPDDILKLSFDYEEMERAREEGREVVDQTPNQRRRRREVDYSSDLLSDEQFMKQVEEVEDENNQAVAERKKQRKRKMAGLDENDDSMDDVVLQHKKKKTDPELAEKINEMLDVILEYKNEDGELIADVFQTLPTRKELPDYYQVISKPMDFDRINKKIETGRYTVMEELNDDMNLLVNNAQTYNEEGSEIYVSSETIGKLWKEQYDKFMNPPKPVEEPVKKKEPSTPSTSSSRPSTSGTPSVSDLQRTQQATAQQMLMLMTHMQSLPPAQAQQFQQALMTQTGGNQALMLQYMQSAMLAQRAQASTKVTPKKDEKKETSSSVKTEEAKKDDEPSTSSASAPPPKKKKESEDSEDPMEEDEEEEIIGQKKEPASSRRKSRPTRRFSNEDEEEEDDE
UniProt Q10578: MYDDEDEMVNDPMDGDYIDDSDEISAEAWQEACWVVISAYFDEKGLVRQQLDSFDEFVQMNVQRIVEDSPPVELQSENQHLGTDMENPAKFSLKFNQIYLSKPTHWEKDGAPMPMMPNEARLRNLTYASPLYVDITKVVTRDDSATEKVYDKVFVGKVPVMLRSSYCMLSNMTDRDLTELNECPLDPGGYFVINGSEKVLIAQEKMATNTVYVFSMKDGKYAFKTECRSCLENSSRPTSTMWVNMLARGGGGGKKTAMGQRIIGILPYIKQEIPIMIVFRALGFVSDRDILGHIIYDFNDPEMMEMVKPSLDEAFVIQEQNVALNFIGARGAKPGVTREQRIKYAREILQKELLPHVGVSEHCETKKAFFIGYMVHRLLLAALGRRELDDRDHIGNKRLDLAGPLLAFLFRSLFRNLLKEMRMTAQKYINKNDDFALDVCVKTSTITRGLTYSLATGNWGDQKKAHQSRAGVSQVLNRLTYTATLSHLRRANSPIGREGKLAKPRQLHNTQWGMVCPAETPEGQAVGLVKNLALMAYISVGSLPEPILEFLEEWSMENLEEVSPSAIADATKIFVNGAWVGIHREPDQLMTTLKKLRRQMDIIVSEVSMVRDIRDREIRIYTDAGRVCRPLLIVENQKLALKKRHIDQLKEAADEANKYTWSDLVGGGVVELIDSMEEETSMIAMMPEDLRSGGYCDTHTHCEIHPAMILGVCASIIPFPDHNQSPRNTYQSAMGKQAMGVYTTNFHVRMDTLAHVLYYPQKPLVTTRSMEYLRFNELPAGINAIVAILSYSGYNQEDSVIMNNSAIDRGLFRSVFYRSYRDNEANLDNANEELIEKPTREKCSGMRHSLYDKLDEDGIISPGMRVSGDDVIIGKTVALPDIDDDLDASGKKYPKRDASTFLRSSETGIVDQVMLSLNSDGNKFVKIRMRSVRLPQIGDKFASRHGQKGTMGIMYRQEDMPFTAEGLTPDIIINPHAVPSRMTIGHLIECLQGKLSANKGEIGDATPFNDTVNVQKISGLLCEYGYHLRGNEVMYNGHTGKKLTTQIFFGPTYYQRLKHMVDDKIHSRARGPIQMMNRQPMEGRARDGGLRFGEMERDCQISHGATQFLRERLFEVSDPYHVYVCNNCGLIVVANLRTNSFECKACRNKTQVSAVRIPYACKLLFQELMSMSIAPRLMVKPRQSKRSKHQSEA
UniProt Q9N5K2: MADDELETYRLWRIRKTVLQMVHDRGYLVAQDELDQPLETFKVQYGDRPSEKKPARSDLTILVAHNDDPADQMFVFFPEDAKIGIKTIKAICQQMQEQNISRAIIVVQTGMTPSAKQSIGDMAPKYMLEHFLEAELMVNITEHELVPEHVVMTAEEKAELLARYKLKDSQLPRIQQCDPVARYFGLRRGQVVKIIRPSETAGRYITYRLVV
UniProt P54812: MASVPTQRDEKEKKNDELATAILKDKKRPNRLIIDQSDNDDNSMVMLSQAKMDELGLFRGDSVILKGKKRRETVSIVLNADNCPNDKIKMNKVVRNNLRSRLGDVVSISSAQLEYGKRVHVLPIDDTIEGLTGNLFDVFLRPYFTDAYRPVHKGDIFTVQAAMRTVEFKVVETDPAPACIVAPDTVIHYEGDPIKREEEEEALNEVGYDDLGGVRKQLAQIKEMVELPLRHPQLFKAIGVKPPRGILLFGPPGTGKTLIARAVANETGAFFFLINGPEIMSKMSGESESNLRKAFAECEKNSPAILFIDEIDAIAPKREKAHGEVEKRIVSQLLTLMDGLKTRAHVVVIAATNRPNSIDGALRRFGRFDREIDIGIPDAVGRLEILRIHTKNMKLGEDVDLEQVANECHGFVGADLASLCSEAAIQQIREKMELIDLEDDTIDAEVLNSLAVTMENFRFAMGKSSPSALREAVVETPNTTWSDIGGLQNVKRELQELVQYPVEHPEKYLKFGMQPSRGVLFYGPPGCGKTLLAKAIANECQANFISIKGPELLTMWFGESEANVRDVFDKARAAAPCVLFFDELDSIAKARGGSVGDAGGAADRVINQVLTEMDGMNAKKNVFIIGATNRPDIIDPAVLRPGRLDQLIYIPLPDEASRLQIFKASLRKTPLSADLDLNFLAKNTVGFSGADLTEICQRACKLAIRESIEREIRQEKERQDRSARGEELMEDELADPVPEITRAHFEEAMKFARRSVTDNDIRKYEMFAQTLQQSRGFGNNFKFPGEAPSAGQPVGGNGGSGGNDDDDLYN
UniProt P41877: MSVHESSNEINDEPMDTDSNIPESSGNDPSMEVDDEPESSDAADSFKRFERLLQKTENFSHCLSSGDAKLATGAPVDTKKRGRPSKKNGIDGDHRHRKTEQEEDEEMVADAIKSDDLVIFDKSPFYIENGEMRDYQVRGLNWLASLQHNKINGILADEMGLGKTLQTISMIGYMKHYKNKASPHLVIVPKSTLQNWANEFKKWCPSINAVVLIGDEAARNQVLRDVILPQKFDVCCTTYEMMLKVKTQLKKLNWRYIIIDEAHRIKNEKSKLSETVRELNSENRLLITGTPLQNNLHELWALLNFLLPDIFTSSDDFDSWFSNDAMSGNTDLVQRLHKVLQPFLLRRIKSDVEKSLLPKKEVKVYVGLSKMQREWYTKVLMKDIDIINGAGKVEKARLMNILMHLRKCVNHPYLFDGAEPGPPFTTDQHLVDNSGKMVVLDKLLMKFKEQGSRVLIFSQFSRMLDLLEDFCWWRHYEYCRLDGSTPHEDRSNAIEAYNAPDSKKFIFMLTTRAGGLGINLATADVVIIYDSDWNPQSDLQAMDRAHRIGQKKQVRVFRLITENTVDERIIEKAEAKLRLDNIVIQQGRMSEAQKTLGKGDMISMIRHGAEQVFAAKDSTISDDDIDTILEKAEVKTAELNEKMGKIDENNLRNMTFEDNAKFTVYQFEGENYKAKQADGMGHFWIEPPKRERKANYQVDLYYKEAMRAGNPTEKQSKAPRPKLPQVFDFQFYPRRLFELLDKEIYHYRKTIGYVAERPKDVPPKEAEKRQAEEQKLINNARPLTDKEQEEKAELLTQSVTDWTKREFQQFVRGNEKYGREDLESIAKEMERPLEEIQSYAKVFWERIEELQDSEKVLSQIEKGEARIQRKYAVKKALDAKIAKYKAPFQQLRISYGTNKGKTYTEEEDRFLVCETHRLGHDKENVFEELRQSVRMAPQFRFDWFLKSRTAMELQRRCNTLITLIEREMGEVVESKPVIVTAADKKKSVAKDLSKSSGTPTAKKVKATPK

This note sets out measurements from publication PMC10345090.

B1: ENPL-1 (Ce. HSP90B1) (protein, UniProt Q22235 24-760)
chain: EDEIEDAPKETKEETREEDSIKLDGLSVSQIKELRSKAEKHEFQAEVNRMMKLIINSLYRNKEIFLRELISNASDALDKIRLLSLTDPEQLRETEEMSVKIKADRENRLLHITDTGVGMTRQDLINNLGTIARSGTSEFLSKLMDTATSSDQQQDLIGQFGVGFYAAFLVADRVVVTTKNNDDDQYIWESDSASFTISKDPRGNTLKRGTQITLYLKEEAADFLEPDTLKNLVHKYSQFINFDIFLWQSKTEMVEEAVEEEPATTEDGAVEEEKEEKKTKKVEKTTWDWEKVNNVKPIWMRKPNQVEEDEYKQFYKSITKDSEEPLSHVHFSAEGEVSFRSILYVPKKSPNDMFQNYGKVIENIKLYVRRVFITDDFADMLPKYLSFIRGIVDSDDLPLNVSRENLQQHKLLKVIKKKLVRKVLDMLKKLDGAQFDDFWSEFSTNIKLGVMEDPSNRMRLAKLLRFQSSNDADKTTTLAAYVERMKEKQDAIYYMAGTSRKEVETSPFVERLIAKGYEVLFLTEAVDEYCIQAMPEYESKKFQNVAKEGVTIDDGEKAKEAHKGLEEEFKPLTDWLKETALKDLIEKAVVSQRLVKSPSALVASSYGWSGNMERIMKSQAYAKAKDPTQDFYATQKKTFEINPRHPVIKELLKRVTASEEDTTAASTAKLLFETATLRSGFSLQDQVGFADRIEAVLRQSLDVSQDAQVETEQHIEEAEPEPEAAEETTIEEEHSEL

The first assay concerns the target ENDU-2::EGFP (C. elegans) (UniProt Q9GYM9). The assay is described as follows: affinity purification with mass spectrometry; ENDU-2::EGFP immunoprecipitated from EGFP knock-in day 1 adult worms after 1 h HS at 35 °C and about 2 h recovery; co-precipitated proteins by label-free quantitative MS (log2LFQ intensity >1).
B1: the binding result is reported as “binds”.

Another assay shares this target. Described as above. This is another data set of the same source.
RPB-7 (from UniProt Q9N3C9): the binding entry was “binds”. Same read-out and setting: the result for SWSN-1 (from UniProt G5EF87 1-789) reads “binds”. As for SWSN-4 (from UniProt G5EF53 1-1474), the binding result is “binds”. For the molecule “RPB-2 (Pol II subunit B) (from UniProt Q10578 1-1193)”, the binding result is given as “binds”. For RPB-5 (from UniProt Q9N5K2 1-211), the binding entry is reported as “binds”. With “CDC-48.2 (Ce. P97) (from UniProt P54812 1-810)”, the binding result is reported as “binds”.

ISW-1 (from UniProt P41877 1-1009): the binding result is on record as “binds”.
